According to publication PMC4614863, “New Insights into the RNA-Binding and E3 Ubiquitin Ligase Activities of Roquins”:
Construct, isoform or probe ends are uncertain for at least one entry. Where a protein sequence is shown, tags need not be part of it.

Target: T1, RC3H2 stem-loop triple mutant Q244A,Y247A,R248E (Homo sapiens) (UniProt Q9HBD1)
T1 sequence (looked up): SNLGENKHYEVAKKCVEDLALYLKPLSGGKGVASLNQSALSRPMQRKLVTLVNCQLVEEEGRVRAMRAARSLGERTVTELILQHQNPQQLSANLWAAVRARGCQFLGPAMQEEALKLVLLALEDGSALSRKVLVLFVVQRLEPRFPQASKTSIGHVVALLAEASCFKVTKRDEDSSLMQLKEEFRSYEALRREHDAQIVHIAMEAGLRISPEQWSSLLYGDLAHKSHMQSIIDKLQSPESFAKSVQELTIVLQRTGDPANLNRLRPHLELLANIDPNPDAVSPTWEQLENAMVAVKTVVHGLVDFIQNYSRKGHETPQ
Experiment: ITC
Conditions: attributed to duplex form of Tnf23; ITC: 20 mM Tris-HCl pH 8.0, 150 mM NaCl, 1 mM TCEP, 25 C; 200-500 uM RNA injected into 15-30 uM protein, one-site model; recombinant protein; residues 87-404; protein details: His6-tag, removed by TEV where applicable

ACAUGUUUUCUGUGAAAACGGAG [Tnf23 CDE RNA, 23-nt]
Kd: 361 nM
